Like-named read-outs stand apart in the source and are kept apart here. These are yes or no findings as the source states them, for the method shown. In cells and extracts the contact can be indirect. Some binding calls cover weakened binding; strength is not graded here. For some of these results: Where a sequence is shown, tags or fusion partners need not be part of it.

By UniProt entry, the sequences of proteins in these tests, tags left out.
UniProt A2A9A2: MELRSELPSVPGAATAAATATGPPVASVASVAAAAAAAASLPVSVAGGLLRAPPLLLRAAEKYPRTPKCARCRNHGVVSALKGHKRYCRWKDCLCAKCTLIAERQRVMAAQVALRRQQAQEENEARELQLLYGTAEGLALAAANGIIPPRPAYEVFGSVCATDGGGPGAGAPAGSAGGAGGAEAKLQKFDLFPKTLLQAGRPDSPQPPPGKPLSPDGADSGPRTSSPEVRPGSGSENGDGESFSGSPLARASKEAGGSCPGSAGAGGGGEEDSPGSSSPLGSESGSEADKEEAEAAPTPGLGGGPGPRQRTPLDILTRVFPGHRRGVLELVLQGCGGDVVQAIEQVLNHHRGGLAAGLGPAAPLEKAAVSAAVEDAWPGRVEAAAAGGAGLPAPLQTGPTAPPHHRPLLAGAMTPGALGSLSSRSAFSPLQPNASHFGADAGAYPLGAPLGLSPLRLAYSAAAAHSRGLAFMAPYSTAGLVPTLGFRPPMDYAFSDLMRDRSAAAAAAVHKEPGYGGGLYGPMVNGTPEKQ
UniProt Q92769: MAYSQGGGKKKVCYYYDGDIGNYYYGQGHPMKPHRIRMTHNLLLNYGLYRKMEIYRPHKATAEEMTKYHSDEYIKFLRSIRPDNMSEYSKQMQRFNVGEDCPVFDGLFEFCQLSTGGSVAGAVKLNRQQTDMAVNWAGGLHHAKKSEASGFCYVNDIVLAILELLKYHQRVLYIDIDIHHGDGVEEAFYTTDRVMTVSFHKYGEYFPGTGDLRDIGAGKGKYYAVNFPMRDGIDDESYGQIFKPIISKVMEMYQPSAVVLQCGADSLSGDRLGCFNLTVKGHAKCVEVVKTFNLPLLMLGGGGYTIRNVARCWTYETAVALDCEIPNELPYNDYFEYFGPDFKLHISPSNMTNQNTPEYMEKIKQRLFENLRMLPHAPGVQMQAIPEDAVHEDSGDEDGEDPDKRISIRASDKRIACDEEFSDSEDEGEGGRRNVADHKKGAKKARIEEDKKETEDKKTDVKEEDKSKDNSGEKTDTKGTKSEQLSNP
UniProt Q13547: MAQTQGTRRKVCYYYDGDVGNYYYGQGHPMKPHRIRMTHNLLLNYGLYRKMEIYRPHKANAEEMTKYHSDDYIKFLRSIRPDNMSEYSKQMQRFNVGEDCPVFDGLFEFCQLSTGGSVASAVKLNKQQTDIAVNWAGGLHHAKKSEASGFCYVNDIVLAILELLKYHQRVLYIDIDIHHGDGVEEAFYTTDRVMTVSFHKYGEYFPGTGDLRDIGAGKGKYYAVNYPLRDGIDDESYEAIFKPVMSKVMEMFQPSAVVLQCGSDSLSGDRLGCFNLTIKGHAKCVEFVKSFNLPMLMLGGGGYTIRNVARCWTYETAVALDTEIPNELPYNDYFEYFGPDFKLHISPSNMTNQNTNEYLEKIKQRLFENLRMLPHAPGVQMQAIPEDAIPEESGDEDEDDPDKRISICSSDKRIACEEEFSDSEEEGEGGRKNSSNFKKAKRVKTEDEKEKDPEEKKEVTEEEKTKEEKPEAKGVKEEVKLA

Holding throughout (assay): co-IP
Assay [1] deals with Flag-Dmrta2 (pCS2-Flag-mDmrta2) (mouse) (UniProt A2A9A2).
Assay [2] deals with T1, Zfp423 (pCDNA3-Myc-Zfp423) (UniProt Q80TS5).
T1 sequence: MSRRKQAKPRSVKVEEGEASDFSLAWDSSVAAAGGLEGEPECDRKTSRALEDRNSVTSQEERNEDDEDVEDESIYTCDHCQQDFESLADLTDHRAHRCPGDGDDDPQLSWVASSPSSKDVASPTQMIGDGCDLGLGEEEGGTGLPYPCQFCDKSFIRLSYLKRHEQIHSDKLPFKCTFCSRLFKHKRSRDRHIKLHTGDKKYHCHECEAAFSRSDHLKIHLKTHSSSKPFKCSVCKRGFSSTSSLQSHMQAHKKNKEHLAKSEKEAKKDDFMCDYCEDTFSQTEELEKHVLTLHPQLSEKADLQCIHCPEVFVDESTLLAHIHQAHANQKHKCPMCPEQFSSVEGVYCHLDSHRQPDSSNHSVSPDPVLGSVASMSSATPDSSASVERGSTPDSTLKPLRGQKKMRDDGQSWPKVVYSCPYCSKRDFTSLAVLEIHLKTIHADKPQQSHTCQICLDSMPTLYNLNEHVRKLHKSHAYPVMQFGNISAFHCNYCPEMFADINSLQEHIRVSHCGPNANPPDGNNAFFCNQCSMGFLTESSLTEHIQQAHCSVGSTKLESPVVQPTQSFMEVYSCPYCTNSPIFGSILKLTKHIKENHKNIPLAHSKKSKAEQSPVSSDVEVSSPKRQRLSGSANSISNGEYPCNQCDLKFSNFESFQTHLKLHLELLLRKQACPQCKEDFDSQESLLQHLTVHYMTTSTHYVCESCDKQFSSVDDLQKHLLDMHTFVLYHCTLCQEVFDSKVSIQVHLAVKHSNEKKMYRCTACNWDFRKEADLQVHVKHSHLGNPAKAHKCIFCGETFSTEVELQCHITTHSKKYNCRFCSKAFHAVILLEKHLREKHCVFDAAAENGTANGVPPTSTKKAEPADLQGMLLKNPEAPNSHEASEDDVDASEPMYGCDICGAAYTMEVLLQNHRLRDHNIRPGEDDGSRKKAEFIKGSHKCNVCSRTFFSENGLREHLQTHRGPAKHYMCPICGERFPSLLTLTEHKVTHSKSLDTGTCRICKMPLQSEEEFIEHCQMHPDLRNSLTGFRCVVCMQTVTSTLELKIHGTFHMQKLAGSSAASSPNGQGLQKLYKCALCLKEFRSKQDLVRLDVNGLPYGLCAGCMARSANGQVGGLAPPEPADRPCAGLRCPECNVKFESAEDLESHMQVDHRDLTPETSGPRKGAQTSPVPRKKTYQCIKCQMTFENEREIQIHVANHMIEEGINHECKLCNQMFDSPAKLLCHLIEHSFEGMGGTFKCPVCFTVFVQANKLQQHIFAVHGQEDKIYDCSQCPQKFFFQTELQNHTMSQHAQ

The target in assay [3] is Flag-Dmrta2 (pCS2-Flag-mDmrta2) (mouse) (UniProt A2A9A2). The source holds these as a separate data set.

For “HDAC2 (HEK293T) (from UniProt Q92769 1-488)”, the binding entry in assay [1] is “binds”. Same read-out and setting: next, “HDAC1 (HEK293T) (from UniProt Q13547 1-482)”: “binds”. With “Flag-Dmrta2 (pCS2-Flag-mDmrta2) (from UniProt A2A9A2 1-531)”, the binding entry in assay [2] is given as “binds”.

B1: Zfp423 (pCDNA3-Myc-Zfp423) (protein, UniProt Q80TS5 1-1292)
chain: MSRRKQAKPRSVKVEEGEASDFSLAWDSSVAAAGGLEGEPECDRKTSRALEDRNSVTSQEERNEDDEDVEDESIYTCDHCQQDFESLADLTDHRAHRCPGDGDDDPQLSWVASSPSSKDVASPTQMIGDGCDLGLGEEEGGTGLPYPCQFCDKSFIRLSYLKRHEQIHSDKLPFKCTFCSRLFKHKRSRDRHIKLHTGDKKYHCHECEAAFSRSDHLKIHLKTHSSSKPFKCSVCKRGFSSTSSLQSHMQAHKKNKEHLAKSEKEAKKDDFMCDYCEDTFSQTEELEKHVLTLHPQLSEKADLQCIHCPEVFVDESTLLAHIHQAHANQKHKCPMCPEQFSSVEGVYCHLDSHRQPDSSNHSVSPDPVLGSVASMSSATPDSSASVERGSTPDSTLKPLRGQKKMRDDGQSWPKVVYSCPYCSKRDFTSLAVLEIHLKTIHADKPQQSHTCQICLDSMPTLYNLNEHVRKLHKSHAYPVMQFGNISAFHCNYCPEMFADINSLQEHIRVSHCGPNANPPDGNNAFFCNQCSMGFLTESSLTEHIQQAHCSVGSTKLESPVVQPTQSFMEVYSCPYCTNSPIFGSILKLTKHIKENHKNIPLAHSKKSKAEQSPVSSDVEVSSPKRQRLSGSANSISNGEYPCNQCDLKFSNFESFQTHLKLHLELLLRKQACPQCKEDFDSQESLLQHLTVHYMTTSTHYVCESCDKQFSSVDDLQKHLLDMHTFVLYHCTLCQEVFDSKVSIQVHLAVKHSNEKKMYRCTACNWDFRKEADLQVHVKHSHLGNPAKAHKCIFCGETFSTEVELQCHITTHSKKYNCRFCSKAFHAVILLEKHLREKHCVFDAAAENGTANGVPPTSTKKAEPADLQGMLLKNPEAPNSHEASEDDVDASEPMYGCDICGAAYTMEVLLQNHRLRDHNIRPGEDDGSRKKAEFIKGSHKCNVCSRTFFSENGLREHLQTHRGPAKHYMCPICGERFPSLLTLTEHKVTHSKSLDTGTCRICKMPLQSEEEFIEHCQMHPDLRNSLTGFRCVVCMQTVTSTLELKIHGTFHMQKLAGSSAASSPNGQGLQKLYKCALCLKEFRSKQDLVRLDVNGLPYGLCAGCMARSANGQVGGLAPPEPADRPCAGLRCPECNVKFESAEDLESHMQVDHRDLTPETSGPRKGAQTSPVPRKKTYQCIKCQMTFENEREIQIHVANHMIEEGINHECKLCNQMFDSPAKLLCHLIEHSFEGMGGTFKCPVCFTVFVQANKLQQHIFAVHGQEDKIYDCSQCPQKFFFQTELQNHTMSQHAQ
With B1, the binding result in assay [3] is listed as “binds”.

The values above are taken from article doi:10.1101/2024.09.20.614077.
